Laboratory results published in patent US20220280511A1, “CDK4/6 INHIBITORS FOR THE TREATMENT OF PSORIASIS” (EBERHARD KARLS UNIVERSITAET TUEBINGEN MEDIZINISCHE FAKULTAET, priority 2019, published 2022).
No constants are given. Whether binding was seen depends on the method and setting. In cells and extracts the contact can be indirect. Some entries that bind do so weakly or less than the wild type.

By UniProt entry, the sequences of proteins in these tests, tags left out.
UniProt Q15910: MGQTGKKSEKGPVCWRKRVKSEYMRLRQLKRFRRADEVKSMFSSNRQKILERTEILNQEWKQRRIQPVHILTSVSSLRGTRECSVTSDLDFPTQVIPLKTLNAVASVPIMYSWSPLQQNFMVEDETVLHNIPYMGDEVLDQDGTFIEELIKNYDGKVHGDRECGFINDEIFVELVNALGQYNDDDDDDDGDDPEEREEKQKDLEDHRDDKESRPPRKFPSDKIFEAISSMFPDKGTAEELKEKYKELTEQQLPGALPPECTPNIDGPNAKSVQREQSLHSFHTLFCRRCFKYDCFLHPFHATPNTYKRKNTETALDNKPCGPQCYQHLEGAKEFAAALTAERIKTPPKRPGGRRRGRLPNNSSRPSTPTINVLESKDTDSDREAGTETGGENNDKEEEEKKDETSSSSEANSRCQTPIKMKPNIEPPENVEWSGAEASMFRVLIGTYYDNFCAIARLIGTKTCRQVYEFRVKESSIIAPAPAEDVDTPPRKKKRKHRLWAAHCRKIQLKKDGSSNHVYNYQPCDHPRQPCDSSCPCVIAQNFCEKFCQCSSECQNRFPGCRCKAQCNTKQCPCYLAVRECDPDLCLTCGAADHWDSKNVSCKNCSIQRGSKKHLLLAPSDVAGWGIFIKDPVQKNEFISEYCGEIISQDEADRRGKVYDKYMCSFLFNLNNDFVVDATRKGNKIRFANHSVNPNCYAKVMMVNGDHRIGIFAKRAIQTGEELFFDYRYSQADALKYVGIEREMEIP
UniProt Q00534: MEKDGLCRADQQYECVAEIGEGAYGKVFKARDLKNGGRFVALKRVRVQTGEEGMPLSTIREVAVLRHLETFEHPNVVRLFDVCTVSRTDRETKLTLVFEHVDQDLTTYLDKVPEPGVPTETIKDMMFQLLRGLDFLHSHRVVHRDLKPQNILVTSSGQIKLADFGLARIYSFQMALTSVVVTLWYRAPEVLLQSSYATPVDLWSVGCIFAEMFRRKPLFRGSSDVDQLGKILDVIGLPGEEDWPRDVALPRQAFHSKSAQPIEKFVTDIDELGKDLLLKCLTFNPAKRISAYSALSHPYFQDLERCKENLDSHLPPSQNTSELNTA

Legend:
[1] = biological target: EZH2 (wildtype, transiently overexpressed in HEK293T cells) (UniProt Q15910); test: co-immunoprecipitation from HEK293T cells overexpressing EZH2 and CDK6 (FIG. 5c)
[2] = biological target: EZH2 (wildtype, transiently overexpressed in HEK293T cells) (UniProt Q15910); test: co-immunoprecipitation (pulldown with CDK6-specific antibody) from HEK293T cells overexpressing EZH2 and CDK6

binding [1]: binds
binding [2]: binds
Substance: CDK6 (from UniProt Q00534 1-326) (enzyme)
